This is one part of the list.
Compound: CC1Cc2ccccc2N1C(=O)C1CCCN(C1)C(=O)CCl (mixture of isomers) [TRIM25 ligand 11 (diastereomer mixture)]
Experiment: probe-labelled cysteine peptide fold change vs DMSO (competition) (log2 fold change); higher = less target engagement (more negative = stronger competition)
Details: THP-1, incubation time: 4 h
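Further: competitive chemoproteomic profiling in live THP-1 cells with an iodoacetamide desthiobiotin (IA-DTB) probe, comparing probe-labelled peptide intensities in compound-treated cells against DMSO-treated controls.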

Target | probe-labelled cysteine peptide fold change (10 µM) | probe-labelled cysteine peptide fold change (50 µM)
DHX38_Q92620_582_TTQLTQYLHEDGYTDYGMIGCTQPR (UniProt Q92620) | 0.0347 | -0.0104
DNAJA1_P31689_302_CVLNEGMPIYR (UniProt P31689) | -0.0264 | -0.211
DIEXF_Q68CQ4_717_ATNRGEEATWTCTVLYSK (UniProt Q68CQ4) | -0.0216 | 0.0467
DIAPH1_O60610_796_LVAEDLSQDCFWTK (UniProt O60610) | -0.0218 | 0.0534
DNM2_P50570_607_QIELACDSQEDVDSWK (UniProt P50570) | 0.0299 | -0.132
DLGAP5_Q15398_381_LPCPLGPLTVWHEEHVLNK (UniProt Q15398) | 0.0766 | 0.0275
DHX8_Q14562_1096_HKLDVVSCGK (UniProt Q14562) | 0.0209 | 0.0501
DHX36_Q9H2U1_781_DYCWEYFLSSNTLQMLHNMK (UniProt Q9H2U1) | 0.184 | 0.0577
DNAJC10_Q8IXB1_158_EFDAAVNSGELWFVNFYSPGCSHCHDLAPTWR (UniProt Q8IXB1) | -0.0379 | -0.492
DLGAP5_Q15398_696_SSIEDAQCPGLPDLIEENHVVNK (UniProt Q15398) | 0.312 | -0.417
DNAJC7_Q99615_337_RAQCYMDTEQYEEAVR (UniProt Q99615) | -0.0544 | -0.0392
DLGAP5_Q15398_129_YRPDMPCFLLSNQNAVK (UniProt Q15398) | -0.299 | -0.594
DHTKD1_Q96HY7_429_DVIIDLLCYR (UniProt Q96HY7) | 0.00618 | 0.0565
DIMT1_Q9UNQ2_259_IHCSVHNIIIPEDFSIADK (UniProt Q9UNQ2) | 0.326 | -0.0863
DNAJC13_O75165_884_CHEEIGPFTDTR (UniProt O75165) | 0.0697 | 0.17
DGLUCY_Q7Z3D6_100_YEFGACTGSLASLEQYSEQLK (UniProt Q7Z3D6) | -0.0187 | 0.115
DNM1L_O00429_470_LHDAIVEVVTCLLRK (UniProt O00429) | -0.359 | -0.0808
DIAPH2_O60879_862_INFLCK (UniProt O60879) | -0.0162 | 0.234
DNAJA3_Q96EY1_289+292_GSIIISPCVVCR (UniProt Q96EY1) | 0.00428 | 0.0461
DNAJA1_P31689_271_RGEDLFMCMDIQLVEALCGFQK (UniProt P31689) | -0.021 | 0.281
DHX33_Q9H6R0_190_KYSCVILDEAHER (UniProt Q9H6R0) | -0.0944 | -0.0108
DNAJA1_P31689_261_RGEDLFMCMDIQLVEALCGFQK (UniProt P31689) | 0.0434 | 0.0878
DNAJA4_Q8WW22_138_CEGVGGK (UniProt Q8WW22) | 0.0667 | 0.0587
DNAJA4_Q8WW22_368_EFCPNEQNWR (UniProt Q8WW22) | -0.12 | -0.109
DIAPH1_O60610_964_LQFSEQVENIKPEIVSVTAACEELR (UniProt O60610) | 0.176 | 0.06
DICER1_Q9UPY3_1641_DSEYGCLK (UniProt Q9UPY3) | -0.135 | -0.0335
DICER1_Q9UPY3_1063_LHCLLTAEELR (UniProt Q9UPY3) | 0.0331 | 0.055
DHRS9_Q9BPW9_60_GFHVIAACLTESGSTALK (UniProt Q9BPW9) | 0.105 | 0.197

Reference: the supplement of paper PMC12067093, “Discovery and optimisation of a covalent ligand for TRIM25 and its application to targeted protein ubiquitination” (Chemical Science, 2025)
